Experimental data reported in patent publication US20070087001A1 (CENTER FOR MOLECULAR MEDICINE AND IMMUNOLOGY, published 2007).
These are yes or no findings as the source states them, for the method shown. Some entries that bind do so weakly or less than the wild type. Where a sequence is shown, tags or fusion partners need not be part of it.

The chains behind the UniProt entries cited, without tags or fusion partners. Residues count along the entry.
UniProt P17948, residues 27-756: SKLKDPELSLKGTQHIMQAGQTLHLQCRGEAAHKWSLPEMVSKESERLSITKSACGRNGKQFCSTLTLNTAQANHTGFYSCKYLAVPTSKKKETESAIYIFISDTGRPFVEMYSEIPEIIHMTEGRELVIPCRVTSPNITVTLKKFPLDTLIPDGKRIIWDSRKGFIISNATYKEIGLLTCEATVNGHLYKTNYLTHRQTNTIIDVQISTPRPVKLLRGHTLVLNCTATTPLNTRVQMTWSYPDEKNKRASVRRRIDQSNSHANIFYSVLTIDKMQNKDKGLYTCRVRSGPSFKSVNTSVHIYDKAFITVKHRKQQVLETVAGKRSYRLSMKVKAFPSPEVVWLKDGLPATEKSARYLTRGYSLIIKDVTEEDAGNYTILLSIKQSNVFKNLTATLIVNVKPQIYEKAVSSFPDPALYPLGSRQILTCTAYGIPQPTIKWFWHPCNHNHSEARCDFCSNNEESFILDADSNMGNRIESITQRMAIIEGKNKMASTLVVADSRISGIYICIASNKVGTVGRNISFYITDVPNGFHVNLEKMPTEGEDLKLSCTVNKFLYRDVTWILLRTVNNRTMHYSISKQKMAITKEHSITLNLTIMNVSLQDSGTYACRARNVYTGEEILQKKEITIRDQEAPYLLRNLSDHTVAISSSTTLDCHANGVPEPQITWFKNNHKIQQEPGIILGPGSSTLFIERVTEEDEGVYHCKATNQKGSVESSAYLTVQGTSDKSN

Columns and labels:
[1] = biological target: T1, Recombinant human Flt-1 fusion protein (human, UniProt P17948 27-756); assay: ELISA on Flt-1-coated wells, FLAG detection, with and without heparin
T1 construct: Bought fusion protein coated on plates at 10 µg/ml; also called VEGFR1; VEGF receptor I

[2] = biological target: T2, Recombinant human placenta growth factor-2 (PlGF-2) (human) (UniProt P49763); assay: summary of the ELISA binding assays
T2 sequence (looked up): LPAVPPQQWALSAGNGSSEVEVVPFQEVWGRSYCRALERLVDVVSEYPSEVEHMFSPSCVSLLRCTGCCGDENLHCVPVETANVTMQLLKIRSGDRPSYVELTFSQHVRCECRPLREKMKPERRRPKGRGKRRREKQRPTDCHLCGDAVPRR

[3] = biological target: T1, Recombinant human Flt-1 fusion protein; assay: summary of the ELISA binding assays

Measured: binding

SHRYRLAIQLHASDSSSSCVDYKDDDDK (peptide, not shown: small tags and cut ends) [Peptide BP1 (Binding Peptide 1) synthesized with a linker and a C-terminal FLAG epitope]
binds: all assays above
